# Screening data, single-dose tests

Mtb cholesterol medium: 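Whole-cell growth test on Mycobacterium tuberculosis, read after 4 days in a medium based on cholesterol and the lipid DPPC; the read-out is not stated. Compounds at 50 µM. The record gives no direction; compounds that gave an IC50 in retests scored well above the rest, so higher reads as more growth inhibition. About 69,000 compounds were tested under these conditions; 0.54% (about 370) showed 50% or more at least once.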
Mtb glucose medium: 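Phenotypic screen: M. tuberculosis growth, glucose 7H9 medium, 3 days; the read-out is not stated. Tested at 50 µM. Higher reads as more growth inhibition (inferred: compounds with an IC50 in retests scored well above the rest). Of about 69,000 compounds tested this way, about 760 (1.1%) reached 50% or more in at least one test.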

Each number is a percent effect as filed. How 0% and 100% were set is not recorded. Most values in the screen are low, and negative values occur. Compounds were drawn at random from those tested, without regard to their results. Two or more numbers in one place are separate tests of the same structure; such repeats can differ widely.

SMILES	Mtb cholesterol medium	Mtb glucose medium
CN(CC(N)=O)Cc1c(Cl)ccc2cccnc12	-11.08	1.131 & -7.615
Clc1ccccc1C1(c2ccnc(-c3ncccn3)n2)CCNCC1	-18.65	13.68
O=C1NCCCCC1NC(=O)N1CCCc2ccccc21 (stereo not drawn)	1.47	-0.1986 & 29.18
CC(C)c1n[nH]c(C(=O)Nc2ccnn2C(C)C)c1Br	5.703	2.81
CCN(C(=O)c1cc(C)nc2ccccc12)C1CC(=O)NC1=O (stereo not drawn)	11.31	12.42
CC(Cn1cnc2cn(C)nc2c1=O)Oc1cccnc1 (stereo not drawn)	-14.75	-42.91
O=C(O)C(F)(F)F.[H][C@@]12CN(Cc3ccsc3)CCO[C@]1([H])CN(C(=O)C1CCOCC1)C2	-4.577 & -2.951	-2.017
O=C(Nc1ccc2c(c1)OCCO2)N1CCCN(Cc2cccs2)CC1	6.265	-5.858
Cc1ccc(CN2CCC3(CC2)CCN(C(=O)c2cccnc2)C3)o1.O=C(O)C(F)(F)F	7.241	-15.2
COCCC1COC2(CCN(C(=O)c3ccsc3)CC2)C1 (stereo not drawn)	-7.278 & 24.24	0.6218
CN(CC(=O)NC(C)(C)C)C(=O)C1CC(c2cccc(F)c2)=NO1 (stereo not drawn)	-24.94	-17.91
CCN(Cc1cccc2c1OCO2)C(=O)C(C)c1cccnc1 (stereo not drawn)	-10.37	15.19
O=C(NCCc1coc(-c2ccc(F)cc2)n1)NCC1CCOC1 (stereo not drawn)	-21.64	-20.02
O=C(c1coc(CN2CCN(c3ccccc3F)CC2)n1)N1CC=CC1	-3.679	-26.29
COc1ccccc1-n1c(C)cc(CNC(=O)NC(C)C)c1C	1.497	-7.408
CN(CCCc1cnn(C)c1)C(=O)C1CCCN(C2CCCC2)C1 (stereo not drawn)	6.934	8.529
CCCN(CCO)S(=O)(=O)c1ccc2[nH]c(=O)[nH]c2c1	-26.64 & -20.19	-21.8
CC(=O)N1CC(c2ncn(C(C)C)n2)c2cc(C(=O)NC(C)C)ccc21 (stereo not drawn)	-5.625 & 26.4	10.21 & 0.8352
COc1ccc(OC)c(C(C)NS(=O)(=O)c2cnn(C)c2)c1 (stereo not drawn)	11.83	14.98 & 4.71
CC(C)(C)NC(=O)[C@@H]1CNC[C@]12Cc1ccccc1C(=O)N2	16.1 & -1.2	14.04
[H][C@@]12CCN(Cc3ccccn3)C[C@@]1([H])O[C@H](C)C2	-13.68	7.113
[H][C@@]12CN(c3ncc(Cl)cc3F)C[C@]1(C(=O)O)CN(CC1CC1)C2=O	-3.984	-38.51
Cc1nn(C)c(C)c1OCC(=O)NCC(O)c1ccco1 (stereo not drawn)	-24.87	-24.72
COCC1CCCN(C(=O)c2ccc(N(C)Cc3cnn(C)c3)nc2)C1 (stereo not drawn)	2.295	-7.361
CCCN(CCc1ccccc1)C(=O)c1ccccc1NCC(=O)O	2.479	-5.953
COc1cccc(CN(C)Cc2ccc(C#N)cc2)c1OC	10.79 & 10.64	7.806
O=C(CC1CN(Cc2ccccc2)CCO1)Nc1ccccc1F (stereo not drawn)	16.09 & 6.321	11.76
CSc1ccc(CNc2n[nH]c(C)n2)cc1	-42.9	-43.21
CCn1ncc2c1CCCC2NCc1ccccc1N1CCOCC1 (stereo not drawn)	-22.05	-6.886
Cc1n[nH]c(C)c1NC(=O)c1cccc(OCC(F)(F)F)n1	-2.767	15.47
CCOc1ccccc1-c1noc(CN2CCN(CCOC)CC2)n1	12.74	13.54
Cc1nc(C)c(CN2CCOC[C@H](Oc3cnccn3)C2)s1	-11.86	-7.844 & -12.59
CN(C)c1ccc(CNC(=O)NCCc2cccs2)cn1	-8.033	10.26
Cc1cnn(CC2CCCCN2CC(=O)Nc2c(C)n[nH]c2C)c1 (stereo not drawn)	-4.488	-2.961
COc1ncc(C2(O)CCN(Cc3cc(F)ccc3F)CC2)c(OC)n1.Cl	-13.13	7.896
Cc1nc(CNC(=O)Nc2ccc(N(C)C)nc2)sc1C	-4.696	-17.19
CCCN(Cc1cccnc1)C1CC(C)(C)NC(C)(C)C1.O=C(O)CC(O)(CC(=O)O)C(=O)O	5.25	23.79
CSc1ncccc1C(=O)N1CCC2(CC1)c1nc[nH]c1CCN2C	-7.124 & -3.105	-17.86
C[C@@H]1CN(c2ccc(Cl)cn2)C[C@@]1(O)C1CC1	7.806	8.862
Cc1ccc(C)c2c(O)cc(CN3CCC(=O)NCC3C)nc12 (stereo not drawn)	-9.001	4.757
CN(C)CCOc1ccc(N(C)S(=O)(=O)c2cnn(C)c2)cc1	-12.85	12.51
COCC1c2c(cnn2C)CCN1C(=O)c1ccc2c(c1)OCO2 (stereo not drawn)	-5.514	-15.8 & -9.989
Cc1cc(-c2nn(C)c(Cl)c2CN2CCOCC2CC(=O)O)no1 (stereo not drawn)	-0.2511	9.145
Cc1nc(N2Cc3cnn(Cc4ccc(F)cc4)c3C2)no1	7.412 & -23.55	9.064
CCc1nc2n(n1)CCCC2NC(=O)Nc1cccc(F)c1F (stereo not drawn)	-1.575	-35.99
Cc1nc(NCc2cccnc2)c2c(n1)c(C)nn2C	-2.31	-24.14
CN1CCN(Cc2ccc(-c3ccc(-c4ccn[nH]4)cc3)nc2)CC1	-29.39	-2.193
Cn1ccc(CN2CCC3(CC2)CC(Nc2cnccn2)CO3)n1.O=C(O)C(F)(F)F (stereo not drawn)	-5.775	-24.94 & 1.061
CCc1cc(N(C)Cc2noc(CC(C)C)n2)ncn1	-30.37	4.406 & -31.69
Cn1ccc(C(=O)NC2CCC23CCN(Cc2nccs2)CC3)c1 (stereo not drawn)	10.33	16.51
CCC(C)N(Cc1ccncc1)C(=O)CCC(=O)OC (stereo not drawn)	-20.77	-7.357
O=C(NCCSCc1ccc(Br)s1)C1CCCN(c2cnccn2)C1 (stereo not drawn)	-24.99	-0.2256
CCNC(=O)Cc1ccc(NC(=O)NC(CC)CC)cc1	-13.6	-34.66 & 6.943
CCc1cnc(CN(C(C)=O)C2CCN(CCc3ccccc3)C2)o1 (stereo not drawn)	-25.92	14.38
CC(=O)N1CC(C)CN(Cc2ccon2)c2ccccc21 (stereo not drawn)	-6.642	12.11 & -8.451
CCN1CCN(C(=O)NCc2ccccc2Cn2cncn2)CC1	5.094	-22.92 & -2.583
CC(O)CN1CCC(CNCc2cn(-c3ccccc3)nn2)CC1 (stereo not drawn)	12.73	9.959 & -1.571
COc1ncccc1NC(=O)NC(CCCO)c1ccccc1 (stereo not drawn)	36.39	20.38
NC(=O)c1cccc(CC2CCN(C(=O)Cn3cnnn3)C2)c1 (stereo not drawn)	-6.66 & -11.14	-32.65
Cc1cc(=O)n2ncnc2n1CC(O)c1ccccc1Cl (stereo not drawn)	-8.737	-7.554 & -13.53
CN1CCN(CC(=O)NCc2ccco2)Cc2ccccc21	16.96	44.06
CC(=O)N1CCC(N[C@@H]2CO[C@H](CNC(=O)c3cccs3)[C@H]2O)CC1	4.857	-1.093 & -49.03
[H][C@@]12CS(=O)(=O)C[C@]1([H])N(CCCOc1ccccc1)CCN2C(=O)N(C)C	-6.03	-16.95
CC(C)(C)c1ccn(C2(C(=O)O)CCN(c3ccncc3F)CC2)n1	-1.354	-29.72
[H][C@]12CC[C@@H](Nc3cccnn3)[C@@]1([H])CN(Cc1ccc3[nH]ccc3c1)C2	2.987 & 0.1044	15.84
CN(Cc1cnccn1)C(=O)c1ccc(CSc2nnc[nH]2)o1	3.446	0.6265 & 7.166
Cc1cccc(C(=O)N2CCN(C)CC2)c1NC(=O)c1ccncc1	-2.552	-1.958 & -4.108
CC(C)CN1CCC2(COCc3cnc(-c4ccccc4)nc32)C1.O=C(O)C(F)(F)F (stereo not drawn)	14.35	34.42
[H][C@@]12CNC[C@]1([H])[C@H]2C(=O)N1CCN(c2ccc(OC)cc2)C(C)(C)C1	32.25 & 14.24	-38.92
Cc1nn(C)c(C)c1C1COCCN1c1ncnc2c(C)cccc12 (stereo not drawn)	-1.198 & -1.908	8.385
O=C(O)C(F)(F)F.O=C(O)C(F)(F)F.[H][C@@]12CN(Cc3ccncc3)CCC[C@]1(C(=O)O)CN(c1ncccn1)C2	-29.44	-8.675 & -26.88
CN1CCN(Cc2cccnc2)C(=O)C12CCN(S(C)(=O)=O)CC2	1.73	-4.668
COc1ccc(-c2cnc3c(c2)CN(C2CC2)C(=O)CCN3)cc1	7.788	21.66
COCC(=O)N1CCC(C)(c2cc(O)[nH]n2)CC1	-6.06	6.255
Cc1nc2c(c(C)c1CC(=O)NCc1ccccc1F)c(=O)[nH]n2C	2.333	2.462
[H][C@@]12CCCC[C@]1([H])CN(CC(C)n1cnc3ccccc31)CC2 (stereo partly drawn)	-10.35	-7.279 & 14.36
O=C(c1cscn1)N1CCc2[nH]nc(Nc3ccccc3)c2C1	-9.828 & -10.88	-11.63
CS(=O)(=O)NCc1cc2n(n1)CCCN(Cc1cccc(C#N)c1)C2	-2.238	0.4631
Cc1ccc(CC(=O)N(C)CC2(O)CCCN(c3ccccn3)C2)s1 (stereo not drawn)	-8.208	-10.92

The first 5 entries again:

- CN(CC(N)=O)Cc1c(Cl)ccc2cccnc12 : Mtb cholesterol medium: -11.08%; Mtb glucose medium: 1.131% & -7.615%
- Clc1ccccc1C1(c2ccnc(-c3ncccn3)n2)CCNCC1 : Mtb cholesterol medium: -18.65%; Mtb glucose medium: 13.68%
- O=C1NCCCCC1NC(=O)N1CCCc2ccccc21 (stereo not drawn) : Mtb cholesterol medium: 1.47%; Mtb glucose medium: -0.1986% & 29.18%
- CC(C)c1n[nH]c(C(=O)Nc2ccnn2C(C)C)c1Br : Mtb cholesterol medium: 5.703%; Mtb glucose medium: 2.81%
- CCN(C(=O)c1cc(C)nc2ccccc12)C1CC(=O)NC1=O (stereo not drawn) : Mtb cholesterol medium: 11.31%; Mtb glucose medium: 12.42%

Data taken from ChEMBL document CHEMBL3988442, “University of Dundee, Small-Polar-MMV Screening Library” (2021).